These are yes or no findings as the source states them, for the method shown. Binding seen in cells or lysates may run through a third protein. A yes stands for co-enrichment or nearness to the bait. Other partners may have been found.
Target: T1, sideroflexin 3 (native, from membrane proteins of NLC of CLL patients) (human) (UniProt Q9BWM7)
T1 sequence (looked up): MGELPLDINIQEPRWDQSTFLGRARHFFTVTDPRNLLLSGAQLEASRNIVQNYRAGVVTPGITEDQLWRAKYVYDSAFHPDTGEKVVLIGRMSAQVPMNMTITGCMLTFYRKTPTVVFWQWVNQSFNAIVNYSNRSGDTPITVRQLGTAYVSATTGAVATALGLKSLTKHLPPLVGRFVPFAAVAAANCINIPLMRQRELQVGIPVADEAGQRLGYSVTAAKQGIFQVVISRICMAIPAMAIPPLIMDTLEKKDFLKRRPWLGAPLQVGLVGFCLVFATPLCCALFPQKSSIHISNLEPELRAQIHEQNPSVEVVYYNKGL
Assay: immunoprecipitation of NLC membrane proteins with hybridoma supernatant on beads, mass spectrometry

binding: binds
B1: 6-25 antibody (antibody, V domains shown)
VH: QVQLKESGPGLVAPSQSLSITCTVSGFSLTGYGVNWVRQPPGKGLEWLGMIWGDGSTDYNSDLKSRLSITEDNSKRQVFLKMDSLQTEDTARYYCARDLKFAYWGQGTLVTVSA
VL: DIVMTQSHKFMSSSVGDRVSITCKASQHVTTAVAWFQQKPGQSPKLLIYSASFRYTGVPDRFTGSGSGTDFTFTISTVQAEDLAVYYCQQHYTTPWTFGGGTKLEIK

Source: patent publication US20210292408A1
